Results deposited as PubChem BioAssay AID1671195 (Yale University, 2021)
Aim: 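Knockdowns that increase or decrease uptake of fluorescent LDL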 (primary screen). Cell system: human Huh7 hepatoma cells. Knock-down reagent: siRNA pool against human genes, 18 nM. Duration: about 2 to 2.5 days of knockdown, then 8 h LDL uptake. Treatment: DiI-labelled LDL at 30 µg/ml for 8 h, in lipoprotein-deficient serum medium. Measurement: 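Per-cell DiI-LDL intensity by automated imaging; well means scaled to the plate median and given as a robust z-score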. Scale: robust z-score: higher = more LDL uptake after knockdown. Rule for the call: 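Active when two or more replicates show a robust z-score above 2 or below -2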.
The deposit covers about 22,000 reagents; this is an unselected part. In the full data, about 1,510 (6.9%) were called active. 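Active includes knockdowns raising or lowering LDL uptake; positive z-scores mean more uptake, negative mean less.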 No sequences are given here.

target gene	robust z-score, replicate 1	robust z-score, replicate 2	robust z-score, replicate 3	Outcome
LOC401234 (retired record)	-1.23	-0.885	-0.549	inactive
LAMC1 (laminin subunit gamma 1)	-0.259	-0.0422	0.192	inactive
TAP1 (transporter 1, ATP binding cassette subfamily B member)	1.55	1.85	1.21	inactive
IL1RAPL1 (interleukin 1 receptor accessory protein like 1)	0.345	0.262	0.523	inactive
THAP10 (THAP domain containing 10)	1.66	1.25	2.68	inactive
LOC401128 (retired record)	0.674	0.558	0.578	inactive
CEP250 (centrosomal protein 250)	-0.232	-1	0.52	inactive
FAM225A (family with sequence similarity 225 member A)	-0.146	0.0671	-0.117	inactive
CNMD (chondromodulin)	0.86	0.332	0.183	inactive
NDUFS4 (NADH:ubiquinone oxidoreductase subunit S4)	-0.518	-0.785	-0.71	inactive
GET4 (guided entry of tail-anchored proteins factor 4)	-1.76	-1.18	-1.25	inactive
TOP3B (DNA topoisomerase III beta)	-0.64	0.722	0.174	inactive
SELENOT (selenoprotein T)	0.748	1.5	1.93	inactive

A run of entries taken from the entries so far, as a working copy:
target gene	robust z-score, replicate 1	robust z-score, replicate 2	robust z-score, replicate 3	Outcome
TAP1 (transporter 1, ATP binding cassette subfamily B member)	1.55	1.85	1.21	inactive
IL1RAPL1 (interleukin 1 receptor accessory protein like 1)	0.345	0.262	0.523	inactive
THAP10 (THAP domain containing 10)	1.66	1.25	2.68	inactive
LOC401128 (retired record)	0.674	0.558	0.578	inactive

Next entries follow:
target gene	robust z-score, replicate 1	robust z-score, replicate 2	robust z-score, replicate 3	Outcome
PSMB11 (proteasome subunit beta 11)	-1.03	-1.08	-1.18	inactive
HES4 (hes family bHLH transcription factor 4)	0.306	0.44	-0.0576	inactive
NUP107 (nucleoporin 107)	4.78	4.76	6.27	active
PSMC1 (proteasome 26S subunit, ATPase 1)	-0.0433	-0.538	-0.836	inactive
ACP2 (acid phosphatase 2, lysosomal)	1.75	2.44	2.23	active
COMMD4P1 (COMM domain containing 4 pseudogene 1)	-0.62	-0.593	-0.516	inactive
FCHSD1 (FCH and double SH3 domains 1)	-0.391	-0.308	-0.594	inactive
GABBR1 (gamma-aminobutyric acid type B receptor subunit 1)	-0.161	-0.809	-0.836	inactive
OR51B4 (olfactory receptor family 51 subfamily B member 4)	1.89	0.632	1.21	inactive
PRORSD1P	-1.06	-1.57	-1.01	inactive
CDH4 (cadherin 4)	-0.659	-1.11	-0.968	inactive
CLINT1 (clathrin interactor 1)	0.327	0.753	0.707	inactive
DAG1 (dystroglycan 1)	0.67	0.925	0.297	inactive
LINC01085 (long independently transcribed non-coding RNA 1085)	0.194	0.317	0.0316	inactive
CD180 (CD180 molecule)	-0.545	-0.864	-1.79	inactive
